Data from publication PMC2650728.

How the values were obtained:
[1] = biological target: T1, Stt7 containing a haemagglutinin (HA)-tag at its C-terminal end (Stt7-HA) (Chlamydomonas reinhardtii) (UniProt Q84V18); assay: co-IP; thylakoid membranes (0.8 mg/ml) solubilized with n-dodecyl-β-maltoside, anti-HA-affinity matrix overnight at 4 °C, five washes in TBS-BSA (100 mM Tris/HCl pH 7.5, 150 mM NaCl, 0.05% BSA), immunoblot of the precipitate; Figure 3A with cells in state 1 or state 2, Figure 6C state not told
T1 sequence: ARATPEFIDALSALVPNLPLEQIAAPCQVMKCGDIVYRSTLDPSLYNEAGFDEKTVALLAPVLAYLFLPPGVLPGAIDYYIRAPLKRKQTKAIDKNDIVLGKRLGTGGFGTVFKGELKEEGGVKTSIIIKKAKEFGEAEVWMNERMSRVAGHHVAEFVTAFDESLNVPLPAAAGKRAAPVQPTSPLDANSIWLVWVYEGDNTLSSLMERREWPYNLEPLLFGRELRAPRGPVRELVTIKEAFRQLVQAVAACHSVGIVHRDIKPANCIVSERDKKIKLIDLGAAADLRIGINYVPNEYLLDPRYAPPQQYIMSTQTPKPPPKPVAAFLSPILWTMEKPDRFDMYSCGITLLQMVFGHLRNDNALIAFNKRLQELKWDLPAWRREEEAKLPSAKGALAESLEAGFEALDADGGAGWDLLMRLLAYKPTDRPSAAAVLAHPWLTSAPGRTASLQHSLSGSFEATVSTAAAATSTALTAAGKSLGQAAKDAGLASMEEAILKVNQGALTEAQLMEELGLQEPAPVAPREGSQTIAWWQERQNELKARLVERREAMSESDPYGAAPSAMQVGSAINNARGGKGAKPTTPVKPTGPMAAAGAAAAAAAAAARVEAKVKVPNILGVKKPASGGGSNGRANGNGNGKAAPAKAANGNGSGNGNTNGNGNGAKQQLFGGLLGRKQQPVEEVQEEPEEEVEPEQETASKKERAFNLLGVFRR

[2] = biological target: LHCII protein P11 (Chlamydomonas reinhardtii (endogenous)); assay: co-IP; reciprocal: solubilized thylakoid membranes from the Stt7-HA strain precipitated with antibodies against the thylakoid proteins, immunoblotted with HA antibodies

Molecule: LHCII protein P11 (Chlamydomonas reinhardtii (endogenous))
binding [1]: binds

Molecule: LHCII protein P17 (Chlamydomonas reinhardtii (endogenous))
binding [1]: binds

B1: Stt7 containing a haemagglutinin (HA)-tag at its C-terminal end (Stt7-HA) (enzyme, UniProt Q84V18 42-754)
chain: ARATPEFIDALSALVPNLPLEQIAAPCQVMKCGDIVYRSTLDPSLYNEAGFDEKTVALLAPVLAYLFLPPGVLPGAIDYYIRAPLKRKQTKAIDKNDIVLGKRLGTGGFGTVFKGELKEEGGVKTSIIIKKAKEFGEAEVWMNERMSRVAGHHVAEFVTAFDESLNVPLPAAAGKRAAPVQPTSPLDANSIWLVWVYEGDNTLSSLMERREWPYNLEPLLFGRELRAPRGPVRELVTIKEAFRQLVQAVAACHSVGIVHRDIKPANCIVSERDKKIKLIDLGAAADLRIGINYVPNEYLLDPRYAPPQQYIMSTQTPKPPPKPVAAFLSPILWTMEKPDRFDMYSCGITLLQMVFGHLRNDNALIAFNKRLQELKWDLPAWRREEEAKLPSAKGALAESLEAGFEALDADGGAGWDLLMRLLAYKPTDRPSAAAVLAHPWLTSAPGRTASLQHSLSGSFEATVSTAAAATSTALTAAGKSLGQAAKDAGLASMEEAILKVNQGALTEAQLMEELGLQEPAPVAPREGSQTIAWWQERQNELKARLVERREAMSESDPYGAAPSAMQVGSAINNARGGKGAKPTTPVKPTGPMAAAGAAAAAAAAAARVEAKVKVPNILGVKKPASGGGSNGRANGNGNGKAAPAKAANGNGSGNGNTNGNGNGAKQQLFGGLLGRKQQPVEEVQEEPEEEVEPEQETASKKERAFNLLGVFRR
binding [2]: binds

Next, values leading:

binding [1]: binds
Molecule: CP26 (Chlamydomonas reinhardtii (endogenous))

binding [1]: binds
Molecule: LHCII protein P13 (Chlamydomonas reinhardtii (endogenous))

binding [1]: binds
Molecule: Lhcbm5 (Chlamydomonas reinhardtii (endogenous))

No constants are given. Whether binding was seen depends on the method and setting. In cells and extracts the contact can be indirect. Binding calls can cover weak binding; strength is not graded here. Where a sequence is shown, tags or fusion partners need not be part of it. Each block holds one molecule with its values, some of them ahead of it.
